Test results published in PubChem BioAssay AID504444 (National Center for Advancing Translational Sciences (NCATS), 2011).
In all, about 360,000 compounds went through this assay and about 7,500 (2.1%) were called active. Inconclusive results, whose numbers are uncertain, are shown with a selection of clear calls. Calls come from the whole dose curve; as a rule, active = well fitted inhibition curve with a large enough effect; inconclusive = small, poorly fitted or top-dose-only effect, or effect the other way; inactive = flat fitted curve, though single readings scatter. Potencies beside an inconclusive call are fits to weak or partial responses and may not hold up.

Test: Nrf2 qHTS screen for inhibitors; note: nearly all actives have a fitted effect of over 60% in size
Settings: A549 ARE-Fluc reporter, luciferase luminescence, 18-24 h; activity change, negative = inhibition: at 46 µM (top of the series)
How it was run: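 Quantitative HTS in A549 cells stably bearing an antioxidant response element-firefly luciferase construct. Inhibition of Nrf2-driven transcription was scored by luminescence after 18-24 h of compound exposure at 37 °C.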
% is set by controls: 0 for no effect and ±100 for the full control effect; potency is the fitted concentration of half-maximal effect.

Structure (SMILES)	Potency	activity change, negative = inhibition
O=C(NC(=S)Nc1ccc(N2CCCCC2)cc1)c1cccs1	inconclusive: 2.31 µM [activator, full curve]	–
O=C(NC1CCCCC1)C(c1ccc2ncccc2c1)N(Cc1ccccc1)C(=O)c1cccs1 (configuration not stated)	active: 18.4 µM	–
C=CCn1c(NC(=O)c2ccc(C)cc2)nc2ccccc21	inconclusive: 1.64 µM [activator, partial curve, poor fit]	–
CCC(=O)N1c2ccc(S(=O)(=O)CCC(=O)N3CCN(c4ccc(F)cc4)CC3)cc2CC1C (configuration not stated)	inconclusive: 29.1 µM [falling, single point]	–
O=C(COc1ccccc1Cl)Nc1nc(-c2ccc(F)cc2)ns1	inconclusive: 29.1 µM [falling, partial curve, poor fit]	–
COC(=O)c1[nH]c2ccc(C)cc2c1NC(=O)CN1CCN(C(=O)c2ccccc2)CC1	–	inactive: -19.8%
COC(=O)CCc1c[nH]c2ccc([N+](=O)[O-])cc12	inconclusive: 5.17 µM [activator, full curve]	–
COc1cccc(NC(=O)C2CCN(S(=O)(=O)c3c(C)noc3/C=C/c3cccs3)CC2)c1	inconclusive: 11.6 µM [falling, partial curve]	–
Clc1ccc2nc(N3CCN(c4ccccc4)CC3)sc2c1	inconclusive: 10.3 µM [activator, single point]	–
CCc1nnc(SCc2nc(-c3cccc(C)c3)oc2C)c2cc3sc(C)cc3n12	inconclusive: 8.2 µM [activator, partial curve, poor fit]	–
Cc1cccc(N2CCN(C(=O)CNC(=O)Cc3ccccc3)CC2)c1C	inconclusive: 14.6 µM [falling, partial curve, poor fit]	–
NC(=O)C1CCCN(C(=O)c2ccc(-c3cccc(Cl)c3Cl)o2)C1 (configuration not stated)	inconclusive: 2.06 µM [activator, partial curve]	–
Cc1noc(C(=O)Nc2ccc(F)cc2F)c1Cl	inconclusive: 23.1 µM [activator, partial curve, poor fit]	–
O=C(N/N=C/c1ccc(Br)cc1)c1ccc(Br)o1	inconclusive: 7.31 µM [activator, partial curve]	–
CCOC(CCn1c(SCc2ccc([N+](=O)[O-])cc2)nc2ccccc2c1=O)OCC	inconclusive: 25.9 µM [falling, partial curve, poor fit]	–
COc1ccccc1/C=C/C1(C(=O)NC2CCCC2)CC(=O)N1c1ccc(F)cc1 (configuration not stated)	–	inactive: -32.7%
CN(c1ccccc1)S(=O)(=O)c1cccc(NC(=O)Cc2c(F)cccc2Cl)c1	inconclusive: 23.1 µM [falling, single point]	–
